Test results reported in US20240424134A1 (UIF (University Industry Foundation), Yonsei University, priority 2022, published 2024).

Test: general procedure: Fmoc solid-phase peptide synthesis; Rink Amide MBHA resin LL (100-200 mesh, 0.30-0.40 mmol g^-1, Novabiochem); 2-chlorotrityl chloride resin for cyclic Exam; HCTU, HOBt
Details: whole synthesis, analytical HPLC (UV 230 nm), scale of the general procedure typically 0.1 mmol

Final HPLC purity, >95%:
RAUAUAUAUAUAUAUAUAUAUAGRGDRGDRGDG
RAUAUAUAUAUAUAUAUAUAUAGRGDRGDRGDRGDG
RGDRGDRGDAUAUAUAUAUAUAUAUAUAUAR

End groups of sequences in plain letters are not given here. The same purity stands for every peptide and may come from a single statement.
